Assay results published in PubChem BioAssay AID488930 (Broad Institute, 2010).
These results got no clear call from the source, so the numbers are uncertain.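 How the source made its calls: active means compounds whose fitted half-maximal concentration is at most ten times their top tested dose; inconclusive means flat curve with 30 to 70% inhibition, or poor fit; inactive means the rest.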

Test: C. albicans growth inhibition with fluconazole, dose response, antifungal resistance reversal project, CaCi-2 strain, Alamar Blue, dry powder, set 2 (AID 488930)
Details: C. albicans CaCi-2 (fluconazole-resistant clinical isolate) + fluconazole, 48 h; at 6 µM (top of the series)

Compound | activity change, negative = inhibition
CC(C)C(=O)N1CCN(c2ccnc3cc(Cl)ccc23)CC1 | inconclusive: -14.6%
CC(C)CC(=O)N1CCN(c2ccnc3cc(Cl)ccc23)CC1 | inconclusive: -18.5%
